In paper PMC7282624:
No constants are given. Whether binding was seen depends on the method and setting. In cells and extracts the contact can be indirect. Some binding calls cover weakened binding; strength is not graded here. Where a sequence is shown, tags or fusion partners need not be part of it.

The chains behind the UniProt entries cited, without tags or fusion partners.
UniProt P14635: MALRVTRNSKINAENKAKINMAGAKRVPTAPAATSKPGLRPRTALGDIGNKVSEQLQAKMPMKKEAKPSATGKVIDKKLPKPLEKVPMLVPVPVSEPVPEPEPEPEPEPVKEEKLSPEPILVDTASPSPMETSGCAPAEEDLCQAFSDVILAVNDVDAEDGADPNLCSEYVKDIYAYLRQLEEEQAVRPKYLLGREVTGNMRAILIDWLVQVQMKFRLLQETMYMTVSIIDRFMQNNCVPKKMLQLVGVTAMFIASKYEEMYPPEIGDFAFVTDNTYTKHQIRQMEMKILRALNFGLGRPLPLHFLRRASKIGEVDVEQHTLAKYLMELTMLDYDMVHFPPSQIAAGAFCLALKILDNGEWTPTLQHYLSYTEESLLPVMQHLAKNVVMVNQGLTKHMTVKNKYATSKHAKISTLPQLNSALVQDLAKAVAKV

Target: T1, FLAG-tagged ATG13 (ATG13-3FLAG) (human) (UniProt O75143)
T1 sequence: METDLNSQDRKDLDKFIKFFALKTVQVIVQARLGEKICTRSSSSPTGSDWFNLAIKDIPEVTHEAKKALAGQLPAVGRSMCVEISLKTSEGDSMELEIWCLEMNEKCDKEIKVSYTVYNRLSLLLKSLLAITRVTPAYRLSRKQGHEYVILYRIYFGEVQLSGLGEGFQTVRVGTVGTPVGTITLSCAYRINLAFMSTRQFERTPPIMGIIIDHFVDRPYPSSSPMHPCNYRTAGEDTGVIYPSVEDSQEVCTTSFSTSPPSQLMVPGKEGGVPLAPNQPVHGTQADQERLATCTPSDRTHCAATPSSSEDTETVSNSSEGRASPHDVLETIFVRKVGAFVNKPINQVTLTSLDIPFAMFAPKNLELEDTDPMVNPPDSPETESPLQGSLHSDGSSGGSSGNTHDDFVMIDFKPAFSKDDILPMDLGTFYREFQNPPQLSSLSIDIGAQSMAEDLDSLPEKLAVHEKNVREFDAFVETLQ
Assay: co-IP; anti-FLAG antibody on Protein G Dynabeads, 4 °C 12 hours, M-PER lysates of HEK-293T cells stably expressing the FLAG-tagged bait; cells asynchronous or synchronized by single-thymidine with or without nocodazole (some treated with RO-3306); western blot

For “cyclin B1, endogenous (from UniProt P14635 1-433)”, the binding was “binds”.
